Measurements as given in patent publication US20200087393A1.
These are yes or no findings as the source states them, for the method shown. Some binding calls cover weakened binding; strength is not graded here.

The chains behind the UniProt entries cited, without tags or fusion partners.
UniProt Q9UI33: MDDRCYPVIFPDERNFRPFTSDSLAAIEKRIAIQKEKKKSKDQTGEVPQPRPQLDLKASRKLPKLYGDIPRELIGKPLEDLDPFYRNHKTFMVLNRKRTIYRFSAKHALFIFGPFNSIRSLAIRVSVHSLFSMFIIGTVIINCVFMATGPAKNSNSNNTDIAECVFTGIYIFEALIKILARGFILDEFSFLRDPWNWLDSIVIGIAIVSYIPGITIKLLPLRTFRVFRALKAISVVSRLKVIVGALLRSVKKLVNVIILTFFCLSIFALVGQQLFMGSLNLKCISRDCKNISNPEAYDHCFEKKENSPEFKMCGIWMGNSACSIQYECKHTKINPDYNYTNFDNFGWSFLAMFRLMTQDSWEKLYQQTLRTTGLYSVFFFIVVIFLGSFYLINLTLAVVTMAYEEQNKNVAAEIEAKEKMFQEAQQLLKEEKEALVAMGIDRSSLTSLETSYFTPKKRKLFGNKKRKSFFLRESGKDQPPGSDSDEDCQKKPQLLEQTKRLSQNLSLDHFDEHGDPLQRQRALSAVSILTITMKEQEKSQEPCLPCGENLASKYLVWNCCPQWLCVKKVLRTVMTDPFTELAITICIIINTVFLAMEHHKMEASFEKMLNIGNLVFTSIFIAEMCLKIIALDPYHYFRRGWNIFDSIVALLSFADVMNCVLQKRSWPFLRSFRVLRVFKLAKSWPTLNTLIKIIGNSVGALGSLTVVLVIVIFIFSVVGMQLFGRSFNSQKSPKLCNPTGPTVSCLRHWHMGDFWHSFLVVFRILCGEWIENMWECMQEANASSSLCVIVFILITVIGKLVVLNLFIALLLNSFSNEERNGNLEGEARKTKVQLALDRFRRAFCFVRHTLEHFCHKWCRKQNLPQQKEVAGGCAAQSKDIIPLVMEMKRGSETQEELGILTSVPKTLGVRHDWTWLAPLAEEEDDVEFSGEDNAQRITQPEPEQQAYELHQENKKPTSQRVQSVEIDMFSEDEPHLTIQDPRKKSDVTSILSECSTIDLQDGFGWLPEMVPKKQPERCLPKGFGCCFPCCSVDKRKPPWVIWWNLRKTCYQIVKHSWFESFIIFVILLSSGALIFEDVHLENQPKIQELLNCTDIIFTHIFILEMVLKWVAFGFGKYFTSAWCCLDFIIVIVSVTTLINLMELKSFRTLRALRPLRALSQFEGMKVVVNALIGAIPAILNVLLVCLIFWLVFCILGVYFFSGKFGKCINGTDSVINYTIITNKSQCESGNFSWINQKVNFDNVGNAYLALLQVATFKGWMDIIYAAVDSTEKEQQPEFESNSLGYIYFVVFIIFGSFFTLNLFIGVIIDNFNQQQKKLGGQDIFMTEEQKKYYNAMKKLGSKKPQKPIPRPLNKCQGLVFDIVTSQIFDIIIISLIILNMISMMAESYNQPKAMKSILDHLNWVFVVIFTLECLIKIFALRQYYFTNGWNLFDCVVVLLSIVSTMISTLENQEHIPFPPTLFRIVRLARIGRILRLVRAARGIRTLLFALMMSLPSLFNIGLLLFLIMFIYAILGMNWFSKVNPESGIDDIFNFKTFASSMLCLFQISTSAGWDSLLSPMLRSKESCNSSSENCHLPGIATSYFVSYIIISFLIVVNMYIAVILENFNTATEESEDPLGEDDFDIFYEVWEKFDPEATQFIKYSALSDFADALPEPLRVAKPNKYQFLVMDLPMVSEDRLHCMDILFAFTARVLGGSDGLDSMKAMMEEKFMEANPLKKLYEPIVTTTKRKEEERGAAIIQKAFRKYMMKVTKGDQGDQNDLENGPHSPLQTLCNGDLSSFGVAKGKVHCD

Tests used:
[1] = target: human Nav1.9-HA (human) (UniProt Q9UI33); experiment: Western blot of total protein of ND7/23 cells transiently expressing human Nav1.9
[2] = target: human Nav1.9-HA (human) (UniProt Q9UI33); experiment: Western blot of lysate of ND7/23 cells transfected with human Nav1.9-HA; antibody 1:300

B1: antibody 51H10D12 (antibody, mouse IgG2b, kappa, V domains shown)
VH: QVQLQQPGAELVRPGASVKLSCKASGYSFTSYWMNWVKQRPGQGLEWIGMIHPSDSETRLNQKFKDKATLTVDKSSSTAYMQLSSPTSEDSAVYYCARQGFAYWGQGTLVTVST
VL: DIQMNQSPSSLSASLGDTITITCHASQNINVWLSWYQQKPGNIPKLLIYKASNLRTGVPSRFSGSGSGTGFTLTISSLQPEDIATYYCHQGQSYPWTFGGGTKLEIKR
With B1 as the binder, how does the binding [1] read?
The binding was “binds”.

What about the binding [2] of the same binder?
Its binding is “binds”.
